# Where a name gives a salt, the structure may show the parent alone. Some compounds share one wording; it may come from a single statement.
# Test: Compounds removed by water washing rectified peppermint oil, SPME GC-MS before/after
# Type: physicochemical
# Settings: water washing 5 hours + 7 hours fresh water, 1:1 water to oil, gentle stirring; estimated from chromatograms
row,Structure (SMILES),~% Reduction
1,"c1ccoc1 [Compound 5, Furan]",~90%
2,"CC(=O)O [Compound 11, Acetic acid]",~70%
3,"CCC(C)CO (stereo not shown) [Compound 22, 2-Methyl-1-butanol]",~15%
4,"CSSC [Compound 24, Dimethyl disulfide]",~40%
5,"CCCC=CC=O [Compound 29, 2-Hexenal]",~15%
6,"C/C=C/C=O [Compound 16, Crotonaldehyde]",~60%
7,"O=Cc1ccco1 [Compound 28, Furfural]",~35%
8,"S=C=S [Compound 9, Carbon disulfide]",~90%
9,"CCCC(C)=O [Compound 19, 2-Pentanone]",~35%
10,"CC(C)=CC=O [Compound 25, 3-Methyl crotonaldehyde]",~30%
11,"Cc1ccoc1 [Compound 14, 3-Methyl furan]",~70%
12,"CCC(C)=O [Compound 12, 2-Butanone]",~70%
13,"CO [Compound 1, Methanol]",~95%
14,"C/C=C(\C)C=O [Compound 23, 2-Methyl crotonaldehyde]",~30%
15,"CCO [Compound 3, Ethanol]",~95%
16,"CCC1CCC(CC)O1 (stereo not shown) [Compound 30, 2,5-Diethyl THF]",~5%
17,"C[S+](C)[O-] [Compound 27, Dimethyl sulfoxide]",99^+ %
18,"CC(C)C=O [Compound 10, 2-Methyl propanal]",~60%
19,"CC(C)CC=O [Compound 17, 3-Methyl butanal]",~50%
20,"Cc1ccco1 [Compound 13, 2-Methyl furan]",~70%
21,"CC(C)=O [Compound 4, Acetone]",~65%
22,"CCCCCC=O [Compound 26, Hexanal]",~15%
23,"COC(C)=O [Compound 7, Acetic acid methyl ester]",~85%
24,"CCC(C)C=O (stereo not shown) [Compound 18, 2-Methyl butanal]",~50%
25,"CC(C)CO [Compound 15, 2-Methyl-1-propanol]",~40%
26,"COC=O [Compound 2, Methyl formate]",~95%
27,"OC1CCCC1 [Compound 20, Cyclopentanol]",~35%
28,"CSC [Compound 8, Dimethyl sulfide]",99^+ %
29,"CCc1ccco1 [Compound 21, 2-Ethyl furan]",~20%

# Same assay, conditions: water washing 5 hours + 7 hours, 1:1 water to oil
row,Structure (SMILES),concentration change of major components by water washing
1,C=C(C)[C@H]1CC=C(C)CC1 [limonene],not significantly changed
2,C=C1CCC2CC1C2(C)C (stereo not drawn) [beta-pinene],not significantly changed
3,CC1CCC(C(C)C)C(O)C1 (stereo not shown) [menthol],not significantly changed
4,CC1=CCC2CC1C2(C)C (stereo not drawn) [alpha-pinene],not significantly changed
5,CC(C)[C@@H]1CC[C@@H](C)CC1=O [menthone],not significantly changed

# From US8865192B2, “Flavor oils with reduced sulfur content and use in oral care compositions” (The Procter & Gamble Co, priority 2006, dated 2014)
